Measured values reported in PubChem BioAssay AID1259415 (National Center for Advancing Translational Sciences (NCATS), 2018).
Hit rate of the full screen: of about 410,000 compounds, about 18,000 (4.4%) were called active. Inconclusive means that the source gave no clear call. Such entries were picked first, then a sample of the others. Rule as the data show it: active = activity change below about -60%; inconclusive = no clear call, values can overlap the other calls; inactive = above about -39%.

Experiment: qHTS Assay for inhibitors of the human cytomegalovirus (HCMV)
Conditions: HFF cells, HCMV-luciferase reporter, 72 h; at 57.5 µM; active compounds read low
In short: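 Human foreskin fibroblasts infected with luciferase-reporter HCMV at MOI 1 PFU/cell, compounds at two doses. Luciferase measured 72 h post infection; normalized to buffer-only basal and Salinomycin (10uM) controls.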
% is scaled to controls: 0 for no effect and ±100 for the full control effect.

Row | SMILES | activity change, negative = inhibition
1 | O=C1C2CCCN2C(c2ccccc2)N1c1ccc(Cl)cc1 (centres undefined) | active: -96.6%
2 | CCOC(=O)c1cc(NC(=O)CC(C)(C)CC(=O)O)ccc1N1CCCCC1 | inactive: 6.72%
3 | COC(=O)[C@@]12C[C@@H](CC(=O)N3CCCC3)C(=O)N(Cc3cccc4ccccc34)C1=CCC(C)(C)C2 | inconclusive: -54.8%
4 | Cc1cc(N2CCN(C)CC2)nc2ccc(NC(=O)Nc3cccc(Cl)c3)cc12 | active: -98.9%
5 | CN(CC(=O)Nc1ccccc1Br)C(=O)CN1CCN(Cc2cccc(Cl)c2)CC1 | inconclusive: -50.1%
6 | Cc1cccc(-n2ncc(C(=O)N3CCN(c4ccc(C)cc4C)CC3)c2C2CCN(C(=O)OC(C)(C)C)CC2)c1 | inconclusive: 0%
7 | COc1ccc(N=c2oc3cc(O)ccc3cc2C(=O)NCC2CCCO2)c(OC)c1 (centres undefined) | inconclusive: -41%
8 | C[C@H]1CN(CCc2ccccc2)C(=O)[C@@H]1CC(=O)Nc1ccccc1 | active: -74.6%
9 | O=C(CSc1ccc(-c2cccs2)nn1)N1CCCCC1 | inconclusive: -59.6%
10 | C=CCn1c(COc2ccccc2F)nnc1SCCN1C(=O)c2ccccc2C1=O | inconclusive: -44.5%
11 | Cc1ccc(S(=O)(=O)N2CCC(=O)N(C(COCc3ccccc3)Cc3ccccc3)CC2)cc1 (centres undefined) | inactive: -9.12%
12 | COc1ccc(NC(=O)c2ccc3nccnc3c2)cc1 | inactive: 9.97%
13 | COc1ccc(/C=N/S(=O)(=O)c2cccs2)cc1 | inconclusive: -43%
14 | Cc1ccccc1Nc1nn2c(=O)c3ccc(C(=O)NCCc4ccc(Cl)cc4)cc3nc2s1 | inactive: -8.87%
15 | COc1ccc(C(CNC(=O)COc2ccc(F)cc2Br)N2CCCC2)cc1 (centres undefined) | active: -60.5%
16 | COc1ccc([N+](=O)[O-])cc1/C=N/NC(=O)c1nonc1N | inconclusive: -42.7%
17 | CCc1ccc(C(C)NC(=O)Cn2cnc3c(=O)n(C)c(=O)n(C)c32)cc1 (centres undefined) | inconclusive: -47.4%
18 | Cc1oc2ccc(O)c(CN3CCCC3)c2c1C(=O)Nc1ccc(C(C)C)cc1 | inconclusive: -44.8%
19 | CCCn1c(CNc2ccc(Br)cc2)nc2ccccc21 | inconclusive: -58.1%
20 | Cc1nc2ccccc2n1CC(=O)NC(C)C1CC2CCC1C2 (centres undefined) | active: -64.8%
21 | CC(=O)N/N=C/c1cc(C)n(-c2ccc(Br)cc2)c1C | inconclusive: -43.5%
22 | CC1(CSc2ccccc2)CC(=O)N1 (centres undefined) | active: -78.9%
23 | O=C(NC(=S)Nc1cccnc1)c1cccc(Br)c1 | inactive: -27.4%
24 | CN(Cc1c(C(=O)N/N=C/c2ccccc2O)nnn1-c1nonc1N)C1CCCCC1 | active: -98.1%

As entered above.
O=C1C2CCCN2C(c2ccccc2)N1c1ccc(Cl)cc1 (centres undefined) | activity change, negative = inhibition: active: -96.6%
CN(CC(=O)Nc1ccccc1Br)C(=O)CN1CCN(Cc2cccc(Cl)c2)CC1 | activity change, negative = inhibition: inconclusive: -50.1%
